Drawing on PubChem BioAssay AID493014 (National Center for Advancing Translational Sciences (NCATS), 2011), this text covers AC50 for 39 compounds.

The list shows a part of the results. Further columns of the screen follow, without active or inactive calls. Compounds called inactive in the main read-out are mostly missing here. Words in brackets tell the shape of the fitted curve; partial curves, single points and poor fits give uncertain potencies.

A word on the AC50: it is the midpoint of the concentration-response curve, whichever way the signal moves.

The experiment is described as follows: qHTS Assay to Find Inhibitors of Chronic Active B-Cell Receptor Signaling. Conditions: ABC-DLBCL IkBa-CBG/CBR reporter, luminescence ratio (green luciferase fused to IkBa over red control in TMD8 lymphoma cells), 4 h. The method in brief:
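Cell line TMD8 (human ABC DLBCL), stably expressing tet-inducible CBG68-IkBa fusion and CBR; IMDM/0.5% FBS; cpd up to 46 uM; dox induction, 4 h, 37C/5% CO2; dual luminescence; green/red ratio; MG132 control.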

The mark [1] stands for this setting: measured here: CBR red luminescence, cell number.
[2] abbreviates: measured here: IkBa-CBG green luminescence.

For the compound `CCC(=O)N(Cc1cc2c(C)cc(C)cc2[nH]c1=O)C1CCCCC1`, under setting [1], the AC50 was 15.8 µM [rising, partial curve, poor fit].

Take `O=C(NCC1COCCO1)c1cc(COc2c(F)cccc2F)on1` (stereo not drawn): under setting [1], the AC50 was 4.47 µM [rising, full curve, poor fit]. For `Cc1ccc(S(=O)(=O)CCC(=O)Nc2ccc3c(c2)OCO3)cc1`, under setting [1], the AC50 was 7.31 µM [rising, partial curve, poor fit]. Turning to `Nc1nn(-c2ccccc2)nc1C(=O)OCc1ccccc1F`, under setting [1], the AC50 is 8.91 µM [falling, partial curve, poor fit]. In the case of `COC(=O)C1=NN(c2ccccc2)C2(S1)S/C(=C\c1ccccc1)C(=O)N2c1ccccc1` (stereo not drawn), the half-maximal activity concentration (AC50) under setting [1] was 29.1 µM [rising, single point]. The same measure, in the same setting: then `Cc1cccc(N(C)C(=O)C2CCN(S(=O)(=O)c3cccc4nonc34)CC2)c1`, with 35.5 µM [falling, single point]. In the case of `O=C(COC(=O)CNC(=O)c1ccccc1)NCCNC(=O)COC(=O)CNC(=O)c1ccccc1`, the AC50 under setting [1] was 2.31 µM [rising, single point]. Regarding `COc1ccccc1C1=NC(c2ccccc2)CN1c1ccccc1` (stereo not drawn), under setting [1], the concentration at half-maximal activity (AC50) was 14.1 µM [rising, single point].

For `CCn1c(NC(=O)c2ccc(F)cc2)c2ccccc2nc1=O`, the AC50 under setting [1] is 29.1 µM [rising, single point]. Regarding `CCOCCCNC(=O)c1ccc2c(c1)N(CC)C(=O)c1ccccc1S2=O` (stereo not drawn), the AC50 under setting [1] was 0.398 µM [rising, partial curve, poor fit]. For the compound `CC(C)(C)c1ccc(C(=O)c2cn[nH]c2-c2ccccc2O)cc1`, the AC50 under setting [1] is 15.8 µM [falling, single point]. In the case of `Cc1cc(NC(=O)c2cc(-c3ccccc3C)nc3ccccc23)no1`, the AC50 under setting [1] is 1.84 µM [falling, full curve, poor fit]. The same measure, in the same setting: then `COc1ccc2nc(C)cc(Nc3ccc(N4CCN(C)CC4)cc3)c2c1`, with 5.62 µM [falling, partial curve]. Regarding `COc1cc(-c2nc3cnccn3c2Nc2ccc3c(c2)OCCO3)ccc1O`, the AC50 was 16.4 µM [rising, partial curve, poor fit] under setting [1] and 20.6 µM [falling, single point] under setting [2]. Take `COc1ccc(/C=C/C(=O)Oc2cccc(/C=N/NC(=O)COc3c(C)cccc3C)c2)cc1`: under setting [1], the AC50 is 2 µM [rising, partial curve, poor fit]. Turning to `O=C(NN=C1CCCCCCC1)c1ccc(F)cc1`, the AC50 under setting [1] was 8.91 µM [falling, partial curve]. In the case of `Cc1ccc(NC(=O)Nc2ccccc2C(N)=O)cc1`, the AC50 under setting [1] was 3.98 µM [falling, partial curve, poor fit]. For the compound `O=C(Nc1c(-c2ccc(F)cc2)nc2ccccn12)c1ccc(F)cc1`, the AC50 under setting [1] is 0.224 µM [rising, full curve, poor fit]. For `COC(=O)CCCCCCCCC(O)CN(C)C` (stereo not drawn), the AC50 under setting [1] was 14.1 µM [rising, partial curve]. Take `CCOc1ccc(NC(=O)C(C)Oc2ccccc2C(=O)Nc2ccc(C)c(Cl)c2)cc1` (stereo not drawn): the AC50 under setting [1] was 1 µM [rising, partial curve]. Still for that read-out and setting: then `CCN1CCN(S(=O)(=O)c2ccc(Cl)c(C(=O)N(C)Cc3cccs3)c2)CC1`, with 29.1 µM [rising, single point].

On to `O=C(NNC(=S)NC(=O)c1cccc([N+](=O)[O-])c1)c1ccc(O)cc1`, for which the AC50 under setting [1] is 25.1 µM [falling, single point]. The same measure, in the same setting: then `Cc1nc2nc(SCC(=O)c3cccc([N+](=O)[O-])c3)[nH]c2cc1Br`, with 16.4 µM [falling, partial curve, poor fit]. As for `CSc1ccc(Cl)c(C(=O)OCC(=O)N2CCN(C(=O)c3ccco3)CC2)c1`, the AC50 under setting [2] was 25.9 µM [falling, partial curve, poor fit]. For the compound `COc1cc(C(C)=O)ccc1OC(C)C(=O)Nc1ccc(S(=O)(=O)N2CCCC2)cc1` (stereo not drawn), the AC50 under setting [1] was 29.1 µM [rising, single point]. As to `CCn1c(C(=O)N2CCCC(C(=O)NCCc3ccc(C)cc3)C2)cc2sccc21` (stereo not drawn), the AC50 under setting [1] was 15.8 µM [falling, single point].

Regarding `Cc1ccc(-c2nnn(Cc3nc4ccccc4s3)n2)cc1`, the AC50 under setting [1] was 6.51 µM [rising, single point].

Turning to `COc1ccc(Nc2nc(Cl)nc(Nc3ccc(OC)cc3)n2)cc1`, under setting [1], the AC50 was 0.562 µM [falling, partial curve, poor fit].

Turning to `NC(=S)N/N=C/c1coc2cc(Br)ccc2c1=O`, the AC50 under setting [1] is 7.94 µM [rising, partial curve] and the AC50 under setting [2] was 7.08 µM [rising, full curve, poor fit]. For `CCN(C(=O)CSc1nc2ccccc2c(=O)n1-c1ccccc1F)C1CCS(=O)(=O)C1` (stereo not drawn), the AC50 under setting [1] is 4.11 µM [rising, single point]. Same read-out and setting: next, `Cc1cc(C)c2nc(Nc3nc(-c4ccccc4)cc(=O)[nH]3)nc(C)c2c1`: 15.8 µM [falling, partial curve]; `COc1ccc(CCNC(=O)CCS(=O)(=O)Cc2ccccc2C)cc1OC`: 0.1 µM [rising, full curve, poor fit].

In the case of `C=CCNC(=S)N/N=C(\C)c1cccnc1`, the AC50 under setting [1] is 35.5 µM [falling, single point] and the concentration at half-maximal activity (AC50) under setting [2] was 35.5 µM [falling, single point]. In the case of `CCOC(=O)c1ccc(N2CCCCC2)c(NS(=O)(=O)c2ccc(C)cc2)c1`, the AC50 reads like this: under setting [1], 35.5 µM [rising, single point]; under setting [2], 35.5 µM [falling, single point]. Take `CCN(CC)S(=O)(=O)c1cc(NS(=O)(=O)c2cccc(Cl)c2Cl)ccc1C`: under setting [1], the AC50 was 18.4 µM [falling, single point]. `O=C(NCc1ccc(Cl)cc1)c1noc2c1CCCC2`: the AC50 under setting [1] was 8.2 µM [rising, partial curve]. The same measure, in the same setting: next, `COc1ccc(NC(=O)CC2C(=O)NCCN2C(=O)Nc2ccc(C(F)(F)F)cc2)cc1` (stereo not drawn): 14.1 µM [falling, single point]; `CC(=O)c1ccc(Sc2ccccn2)c([N+](=O)[O-])c1`: 6.31 µM [rising, single point]; `CCCCC/C=C/C1=CC(=O)C[C@H](c2ccc(OC)cc2)C1`: 1.3 µM [falling, partial curve].
